Reference: paper doi:10.1101/2025.07.25.666897
These are yes or no findings as the source states them, for the method shown. In cells and extracts the contact can be indirect. Some binding calls cover weakened binding; strength is not graded here. For some of these results: Tags and fused reporters may be left off the sequences shown.

Amino acid sequences for entries named in this document (tags omitted).
UniProt P06730: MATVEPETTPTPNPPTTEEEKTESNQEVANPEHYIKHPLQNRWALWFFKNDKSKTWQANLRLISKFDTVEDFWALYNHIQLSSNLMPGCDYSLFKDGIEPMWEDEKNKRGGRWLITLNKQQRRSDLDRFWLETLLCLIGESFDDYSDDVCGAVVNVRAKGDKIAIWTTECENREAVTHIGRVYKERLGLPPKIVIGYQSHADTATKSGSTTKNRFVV
UniProt Q15717: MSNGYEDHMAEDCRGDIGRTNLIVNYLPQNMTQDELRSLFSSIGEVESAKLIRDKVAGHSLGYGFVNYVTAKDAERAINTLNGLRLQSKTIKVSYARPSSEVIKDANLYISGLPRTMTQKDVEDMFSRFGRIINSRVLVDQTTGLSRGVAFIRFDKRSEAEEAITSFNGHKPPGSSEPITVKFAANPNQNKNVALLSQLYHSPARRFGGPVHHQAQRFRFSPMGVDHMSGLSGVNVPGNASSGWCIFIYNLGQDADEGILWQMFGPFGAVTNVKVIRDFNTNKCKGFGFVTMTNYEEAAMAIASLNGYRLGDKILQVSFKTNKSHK

T1: 2FLAG-NCBP2 (UniProt P52298)
T1 sequence: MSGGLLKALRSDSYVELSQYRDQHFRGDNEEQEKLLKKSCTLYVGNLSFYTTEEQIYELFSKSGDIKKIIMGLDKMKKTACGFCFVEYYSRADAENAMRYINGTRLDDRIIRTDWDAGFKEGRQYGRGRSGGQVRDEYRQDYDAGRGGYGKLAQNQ


Tests used:
[1] = biological target: eukaryotic translation initiation factor eIF4E (endogenous) (human (endogenous in U2OS)) (UniProt P06730); assay: co-IP; endogenous eIF4E precipitated with anti-eIF4E (rabbit, MBL) on Dynabeads G from native (not crosslinked), untreated U2OS nuclear lysates, NT-2 buffer, 4°C overnight, one wash with 1 mg/ml heparin; IgG control; western blot
2FLAG-eIF4E = 2FLAG-eIF4E (UniProt P06730); assay: co-IP; FLAG IPs from crosslinked nuclear lysates of U2OS cells stably overexpressing FLAG-eIF4E or FLAG-NCBP2, two clones each in biological duplicate; vector cells as control; western blot
2FLAG-NCBP2 = biological target: T1, 2FLAG-NCBP2; assay: as above

Row | binding [1] | binding (2FLAG-eIF4E) | binding (2FLAG-NCBP2) | Molecule
1 | binds | – | – | HuR/ELAVL1 (from UniProt Q15717 1-326)
2 | binds | – | – | U2AF1 (protein, UniProt Q01081 1-240) MAEYLASIFGTEKDKVNCSFYFKIGACRHGDRCSRLHNKPTFSQTIALLNIYRNPQNSSQSADGLRCAVSDVEMQEHYDEFFEEVFTEMEEKYGEVEEMNVCDNLGDHLVGNVYVKFRREEDAEKAVIDLNNRWFNGQPIHAELSPVTDFREACCRQYEMGECTRGGFCNFMHLKPISRELRRELYGRRRKKHRSRSRSRERRSRSRDRGRGGGGGGGGGGGGRERDRRRSRDRERSGRF
3 | – | no binding | binds | ARS2, also known as SRRT (protein, UniProt Q9BXP5 1-876) MGDSDDEYDRRRRDKFRRERSDYDRSRERDERRRGDDWNDREWDRGRERRSRGEYRDYDRNRRERFSPPRHELSPPQKRMRRDWDEHSSDPYHSGYEMPYAGGGGGPTYGPPQPWGHPDVHIMQHHVLPIQARLGSIAEIDLGVPPPVMKTFKEFLLSLDDSVDETEAVKRYNDYKLDFRRQQMQDFFLAHKDEEWFRSKYHPDEVGKRRQEARGALQNRLRVFLSLMETGWFDNLLLDIDKADAIVKMLDAAVIKMEGGTENDLRILEQEEEEEQAGKPGEPSKKEEGRAGAGLGDGERKTNDKDEKKEDGKQAENDSSNDDKTKKSEGDGDKEEKKEDSEKEAKKSSKKRNRKHSGDDSFDEGSVSESESESESGQAEEEKEEAEEALKEKEKPKEEEWEKPKDAAGLECKPRPLHKTCSLFMRNIAPNISRAEIISLCKRYPGFMRVALSEPQPERRFFRRGWVTFDRSVNIKEICWNLQNIRLRECELSPGVNRDLTRRVRNINGITQHKQIVRNDIKLAAKLIHTLDDRTQLWASEPGTPPLPTSLPSQNPILKNITDYLIEEVSAEEEELLGSSGGAPPEEPPKEGNPAEINVERDEKLIKVLDKLLLYLRIVHSLDYYNTCEYPNEDEMPNRCGIIHVRGPMPPNRISHGEVLEWQKTFEEKLTPLLSVRESLSEEEAQKMGRKDPEQEVEKFVTSNTQELGKDKWLCPLSGKKFKGPEFVRKHIFNKHAEKIEEVKKEVAFFNNFLTDAKRPALPEIKPAQPPGPAQILPPGLTPGLPYPHQTPQGLMPYGQPRPPILGYGAGAVRPAVPTGGPPYPHAPYGAGRGNYDAFRGQGGYPGKPRNRMVRGDPRAIVEYRDLDAPDDVDFF
